Source: the M2OR odorant receptor database
The entries are a selection whose mix differs from that of the whole data set. The calls were merged from several studies; some rest on single wells. This is one part of the list.

Amino acid sequences for entries named in this document (tags omitted). A change or cut given only in a name is not applied to a line headed by its entry.
UniProt Q96RD3: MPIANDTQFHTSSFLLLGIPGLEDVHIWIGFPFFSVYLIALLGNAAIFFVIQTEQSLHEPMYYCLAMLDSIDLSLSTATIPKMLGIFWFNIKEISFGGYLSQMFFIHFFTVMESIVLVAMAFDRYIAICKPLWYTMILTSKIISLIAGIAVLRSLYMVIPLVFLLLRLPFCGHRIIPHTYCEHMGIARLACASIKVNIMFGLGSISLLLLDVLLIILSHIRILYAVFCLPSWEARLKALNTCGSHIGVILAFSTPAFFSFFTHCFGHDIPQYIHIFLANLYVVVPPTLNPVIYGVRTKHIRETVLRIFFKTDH

What was measured:
Conditions in all cases: stereoisomer not certain
OR52E6 (Homo sapiens) = OR52E6 (Homo sapiens) (UniProt Q96RD3)
Method in brief: (§1)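 Each entry records the cell line, G-protein, co-transfected protein and tags used. Methods varied with the source, often transient luciferase assays in mammalian cell lines. A receptor–molecule pair is called responsive (active) if the original authors judged its signal statistically different from baseline and non-responsive (inactive) otherwise.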

OR52H1 (Homo sapiens) = target: T1, OR52H1 (Homo sapiens) (UniProt Q8NGJ2)
T1 sequence (whole entry): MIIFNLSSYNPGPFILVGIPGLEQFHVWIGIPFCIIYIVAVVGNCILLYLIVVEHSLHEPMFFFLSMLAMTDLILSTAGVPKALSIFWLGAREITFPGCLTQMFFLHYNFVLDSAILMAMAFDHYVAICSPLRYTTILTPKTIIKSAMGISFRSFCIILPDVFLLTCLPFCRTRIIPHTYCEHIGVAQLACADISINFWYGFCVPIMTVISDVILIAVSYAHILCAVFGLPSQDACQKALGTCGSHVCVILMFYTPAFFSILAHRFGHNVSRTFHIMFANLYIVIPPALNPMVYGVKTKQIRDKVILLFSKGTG
Method in brief: as §1

OR52K1 (Homo sapiens) = target: T2, OR52K1 (Homo sapiens) (UniProt Q8NGK4)
T2 sequence (whole entry): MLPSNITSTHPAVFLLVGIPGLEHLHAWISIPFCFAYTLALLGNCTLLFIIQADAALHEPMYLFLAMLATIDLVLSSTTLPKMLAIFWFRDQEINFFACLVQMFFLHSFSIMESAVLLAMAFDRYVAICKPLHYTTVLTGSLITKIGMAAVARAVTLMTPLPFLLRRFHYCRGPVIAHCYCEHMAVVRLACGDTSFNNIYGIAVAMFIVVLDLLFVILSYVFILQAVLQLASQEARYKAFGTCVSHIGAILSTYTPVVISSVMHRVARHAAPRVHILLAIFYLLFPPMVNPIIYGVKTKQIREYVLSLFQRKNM
Method in brief: as §1

OR52K2 (Homo sapiens) = target: T3, OR52K2 (Homo sapiens) (UniProt Q8NGK3)
T3 sequence (whole entry): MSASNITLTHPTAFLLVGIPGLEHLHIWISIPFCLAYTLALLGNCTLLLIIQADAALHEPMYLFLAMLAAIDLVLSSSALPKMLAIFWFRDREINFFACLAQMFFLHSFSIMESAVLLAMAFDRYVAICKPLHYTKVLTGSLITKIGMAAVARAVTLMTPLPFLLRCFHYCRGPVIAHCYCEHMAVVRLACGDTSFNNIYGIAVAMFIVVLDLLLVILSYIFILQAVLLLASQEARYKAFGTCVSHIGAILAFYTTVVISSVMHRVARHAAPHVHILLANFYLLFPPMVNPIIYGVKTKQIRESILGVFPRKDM
Method in brief: as §1

OR52N5 (Homo sapiens) = target: T4, OR52N5 (Homo sapiens) (UniProt Q8NH56)
T4 sequence (whole entry): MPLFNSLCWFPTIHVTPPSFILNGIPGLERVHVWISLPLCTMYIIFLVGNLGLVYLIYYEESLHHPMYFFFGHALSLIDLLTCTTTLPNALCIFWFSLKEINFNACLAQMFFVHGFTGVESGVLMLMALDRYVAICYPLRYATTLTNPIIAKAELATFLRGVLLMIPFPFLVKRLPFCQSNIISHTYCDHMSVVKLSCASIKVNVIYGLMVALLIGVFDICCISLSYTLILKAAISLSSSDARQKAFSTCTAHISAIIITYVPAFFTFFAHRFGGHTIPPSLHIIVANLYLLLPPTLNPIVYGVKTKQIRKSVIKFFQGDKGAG
Method in brief: as §1

OR56A1 (Homo sapiens) = target: T5, OR56A1 (Homo sapiens) (UniProt Q8NGH5)
T5 sequence (whole entry): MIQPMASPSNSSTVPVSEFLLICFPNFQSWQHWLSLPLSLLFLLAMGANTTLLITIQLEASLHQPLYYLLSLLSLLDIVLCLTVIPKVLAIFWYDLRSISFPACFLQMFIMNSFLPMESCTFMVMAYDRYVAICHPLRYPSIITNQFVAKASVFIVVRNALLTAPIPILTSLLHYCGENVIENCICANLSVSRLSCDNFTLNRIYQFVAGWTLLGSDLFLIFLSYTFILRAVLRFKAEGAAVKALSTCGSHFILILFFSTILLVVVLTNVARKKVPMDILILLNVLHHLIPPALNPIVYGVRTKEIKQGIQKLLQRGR
Method in brief: as §1

OR56A4 (Homo sapiens) = target: T6, OR56A4 (Homo sapiens) (UniProt Q8NGH8)
T6 sequence (whole entry): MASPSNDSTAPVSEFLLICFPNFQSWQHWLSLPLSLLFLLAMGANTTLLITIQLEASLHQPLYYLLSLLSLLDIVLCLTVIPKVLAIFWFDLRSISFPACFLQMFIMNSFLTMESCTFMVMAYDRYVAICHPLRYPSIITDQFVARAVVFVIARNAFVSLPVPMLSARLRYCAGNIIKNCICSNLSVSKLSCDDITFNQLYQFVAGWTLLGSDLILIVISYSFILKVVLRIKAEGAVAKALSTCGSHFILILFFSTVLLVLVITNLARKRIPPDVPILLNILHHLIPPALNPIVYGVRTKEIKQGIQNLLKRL
Method in brief: as §1

Measured: odorant receptor agonist call

c1cnccn1
inactive: OR52E6 (Homo sapiens) | OR52H1 (Homo sapiens) | OR52K1 (Homo sapiens) | OR52K2 (Homo sapiens) | OR52N5 (Homo sapiens) | OR56A1 (Homo sapiens) | OR56A4 (Homo sapiens)

CCCCCOC(C)=O
inactive: OR52E6 (Homo sapiens) | OR52H1 (Homo sapiens) | OR52K1 (Homo sapiens) | OR52K2 (Homo sapiens) | OR52N5 (Homo sapiens) | OR56A1 (Homo sapiens) | OR56A4 (Homo sapiens)

C=CCSCC=C
inactive: OR52E6 (Homo sapiens) | OR52H1 (Homo sapiens) | OR52K1 (Homo sapiens) | OR52K2 (Homo sapiens) | OR52N5 (Homo sapiens) | OR56A1 (Homo sapiens) | OR56A4 (Homo sapiens)

CC12CCC(C1)C(C)(C)C2=O (configuration not stated)
inactive: OR52E6 (Homo sapiens) | OR52H1 (Homo sapiens) | OR52K1 (Homo sapiens) | OR52K2 (Homo sapiens) | OR52N5 (Homo sapiens) | OR56A1 (Homo sapiens) | OR56A4 (Homo sapiens)

CCCCCCCCCCC=O
active: OR52N5 (Homo sapiens) | OR56A4 (Homo sapiens)
inactive: OR52E6 (Homo sapiens) | OR52H1 (Homo sapiens) | OR52K1 (Homo sapiens) | OR52K2 (Homo sapiens) | OR56A1 (Homo sapiens)

CCCCO
inactive: OR52E6 (Homo sapiens) | OR52H1 (Homo sapiens) | OR52K1 (Homo sapiens) | OR52K2 (Homo sapiens) | OR52N5 (Homo sapiens) | OR56A1 (Homo sapiens) | OR56A4 (Homo sapiens)

O=C1CCCCC1
inactive: OR52E6 (Homo sapiens) | OR52K1 (Homo sapiens) | OR52K2 (Homo sapiens) | OR56A1 (Homo sapiens)

c1ccc(Oc2ccccc2)cc1
inactive: OR52E6 (Homo sapiens) | OR52H1 (Homo sapiens) | OR52K1 (Homo sapiens) | OR52K2 (Homo sapiens) | OR52N5 (Homo sapiens) | OR56A1 (Homo sapiens) | OR56A4 (Homo sapiens)

CCCCCCCC=O
inactive: OR52E6 (Homo sapiens) | OR52H1 (Homo sapiens) | OR52K1 (Homo sapiens) | OR52K2 (Homo sapiens) | OR52N5 (Homo sapiens) | OR56A1 (Homo sapiens) | OR56A4 (Homo sapiens)

COc1ccccc1O
inactive: OR52E6 (Homo sapiens) | OR52H1 (Homo sapiens) | OR52K1 (Homo sapiens) | OR52K2 (Homo sapiens) | OR52N5 (Homo sapiens) | OR56A1 (Homo sapiens) | OR56A4 (Homo sapiens)

O=C1CCCCCCCCCCCC(=O)OCCO1
active: OR52N5 (Homo sapiens) | OR56A4 (Homo sapiens)
inactive: OR52E6 (Homo sapiens) | OR52H1 (Homo sapiens) | OR52K1 (Homo sapiens) | OR52K2 (Homo sapiens) | OR56A1 (Homo sapiens)

Ordered by SMILES length (largest number first): 3 of the compounds above
c1ccc(Oc2ccccc2)cc1
inactive: OR52E6 (Homo sapiens) | OR52H1 (Homo sapiens) | OR52K1 (Homo sapiens) | OR52K2 (Homo sapiens) | OR52N5 (Homo sapiens) | OR56A1 (Homo sapiens) | OR56A4 (Homo sapiens)

COc1ccccc1O
inactive: OR52E6 (Homo sapiens) | OR52H1 (Homo sapiens) | OR52K1 (Homo sapiens) | OR52K2 (Homo sapiens) | OR52N5 (Homo sapiens) | OR56A1 (Homo sapiens) | OR56A4 (Homo sapiens)

CCCCCCCC=O
inactive: OR52E6 (Homo sapiens) | OR52H1 (Homo sapiens) | OR52K1 (Homo sapiens) | OR52K2 (Homo sapiens) | OR52N5 (Homo sapiens) | OR56A1 (Homo sapiens) | OR56A4 (Homo sapiens)

Additional entries follow.

CCCCCC(C)=O
inactive: OR52E6 (Homo sapiens) | OR52K1 (Homo sapiens) | OR52K2 (Homo sapiens) | OR56A1 (Homo sapiens)

CCC1(O)C2(C)CCC(C2)C1(C)C (configuration not stated)
inactive: OR52E6 (Homo sapiens) | OR52H1 (Homo sapiens) | OR52K1 (Homo sapiens) | OR52K2 (Homo sapiens) | OR52N5 (Homo sapiens) | OR56A1 (Homo sapiens) | OR56A4 (Homo sapiens)

CC12C=CCC1C1CCC3=CC(=O)CCC3(C)C1CC2 (configuration not stated)
inactive: OR52E6 (Homo sapiens) | OR52H1 (Homo sapiens) | OR52K1 (Homo sapiens) | OR52K2 (Homo sapiens) | OR52N5 (Homo sapiens) | OR56A1 (Homo sapiens) | OR56A4 (Homo sapiens)
